# In PubChem BioAssay AID540256 (National Center for Advancing Translational Sciences (NCATS), 2011):
# Out of some 300,000 compounds screened, about 3,700 (1.2%) were called active. Inconclusive results, whose numbers are uncertain, are shown with a selection of clear calls. Calls come from the whole dose curve; tested in HEK293 cells. Where the call is inconclusive, the potency comes from a doubtful curve fit.
# Test: qHTS for Inhibitors of binding or entry into cells for Lassa Virus; note: nearly all actives have a fitted effect of over 50% in size
# Details: Lassa virus pseudotype entry inhibition, cell reporter; activity change, negative = inhibition: at 37.9 µM (top of the series) unless noted
# % is set by controls: 0 for no effect and ±100 for the full control effect; potency is the fitted concentration of half-maximal effect.
Structure (SMILES),"activity change, negative = inhibition",Potency
Cc1ccccc1C(=O)NCc1ccc2c(c1)CCN2C(=O)c1ccccc1,inactive: -29.9% [at 46.1 µM],–
CCCCOc1ccccc1C(=O)NCCCC(=O)O,–,"inconclusive: 1.16 µM [activator, single point]"
COC(=O)/C(=C1/Oc2ccc(C(C)(C)C)cc2S1)C(F)(F)F,inactive: -0.972%,–
O=C1CC(SCCO)C(=O)N1c1ccc(Oc2ccccc2)cc1 (centres undefined),–,"inconclusive: 29.1 µM [inhibitor, partial curve, poor fit]"
CCOC(=O)c1nn(-c2ccc3c(c2)OCO3)cc1O,inactive: 16.6%,–
CCOc1ccccc1CN(CCc1ccc2c(c1)OCO2)Cc1cc(OC)c(OC)cc1OC,–,"inconclusive: 1.58 µM [inhibitor, partial curve, poor fit]"
COC(=O)c1sc2ccccc2c1-n1cccc1C(=O)C(=O)Nc1ccccc1,–,"inconclusive: 35.5 µM [inhibitor, single point]"
C/C(=N\OC(=O)c1ccc(OC(C)C)cc1)c1ccc(C)c(C)c1,–,"inconclusive: 14.1 µM [activator, single point]"
COC(=O)c1cc(Cl)ccc1NC(=O)Cn1c(C)cc(C)c(C#N)c1=O,inactive: 24.4% [at 46.1 µM],–
O=c1nc2c(-c3ccccc3F)n[nH]n2c2ccccc12,–,"inconclusive: 14.6 µM [activator, single point]"
CCc1cc2c(=O)c(-c3nc(C)cs3)coc2cc1O,inactive: -14.1%,–
COCC(C)Nc1ncnc2c1cnn2-c1ccc(Cl)cc1 (centres undefined),–,"inconclusive: 10 µM [inhibitor, partial curve, poor fit]"
O=C(c1cc(=O)c2ccccc2o1)N1CCN(c2ccccc2)CC1,–,"inconclusive: 6.31 µM [activator, single point]"
S=C(Nc1ccc(Br)cc1)NC1CCCC1,–,"inconclusive: 8.2 µM [activator, partial curve]"
CC(C)Oc1ccc(S(=O)(=O)N2CCOCC2)cc1NC(=O)C1=NN(c2ccccc2)C(=O)CC1,–,"inconclusive: 17.8 µM [inhibitor, single point]"
O=C(NC(=S)Nc1ccc(F)c([N+](=O)[O-])c1)c1ccccc1F,–,"inconclusive: 0.891 µM [inhibitor, partial curve, poor fit]"
c1ccc2c(-c3c[nH]c4ccccc34)c3ccccc3nc2c1,inactive: -7.09%,–
Cn1c(C(=O)OC(C(=O)NC(C)(C)C)c2cccnc2)cc2sccc21 (centres undefined),–,"inconclusive: 10 µM [inhibitor, partial curve, poor fit]"
COC(=O)c1ccccc1OCCOCCOc1cccc2ccc(C)nc12,–,"inconclusive: 0.562 µM [inhibitor, partial curve, poor fit]"
CCC(C)NC(=O)/C=C/c1ccc(S(=O)(=O)NCc2ccco2)cc1 (centres undefined),–,"inconclusive: 3.55 µM [activator, partial curve, poor fit]"
CC(C)c1nn2c(=O)cc(COC(=O)c3ccc(NC(=O)c4ccccc4Cl)cc3)nc2s1,–,"inconclusive: 2.51 µM [inhibitor, full curve, poor fit]"
CCCCOc1ccc(C(=O)NC(=S)Nc2ccc(CN3CCOCC3)cc2)cc1,inactive: -2.26%,–
CCOC(=O)c1ccc(N2C(=O)c3n[nH]c(C)c3C2c2ccc(C(C)C)cc2)cc1 (centres undefined),–,"inconclusive: 7.08 µM [activator, partial curve, poor fit]"

Structure (SMILES),"activity change, negative = inhibition",Potency
Cc1ccc(C)c(CN2C(=O)c3ccccc3Sc3ccc(C(=O)NCCCOC(C)C)cc32)c1,–,"inconclusive: 11.2 µM [inhibitor, partial curve, poor fit]"
NC(N)=N/N=C/c1ccc(OCc2ccccc2Cl)cc1,–,"inconclusive: 6.51 µM [activator, single point]"
Cc1ccc(SCCNC(=O)CN(c2ccc3c(c2)OCO3)S(C)(=O)=O)cc1,–,"inconclusive: 12.6 µM [inhibitor, partial curve, poor fit]"
Cc1ccc(N=C2N=C(N)c3ccccc32)c(C)c1,–,"inconclusive: 22.4 µM [inhibitor, single point]"
O=C(Nc1ccc(O)c(-c2nc3ccccc3o2)c1)c1cccs1,–,"inconclusive: 35.5 µM [activator, single point]"
COc1ccc2oc(=O)cc(CN3CCN(C(=O)c4ccccc4)CC3)c2c1,inactive: -0.994% [at 46.1 µM],–
O=C(CCCN1C(=O)/C(=C\c2cccc(Br)c2)SC1=S)Nc1cccnc1,–,"inconclusive: 14.1 µM [inhibitor, partial curve, poor fit]"
CCc1nn(C(C)C(=O)Nc2cccc(C)c2C)c(=O)c2cc3occc3n12 (centres undefined),inactive: 2.45%,–
COc1ccc(CCNC(=O)Cn2nnc(-c3cccc(C(F)(F)F)c3)n2)cc1OC,inactive: -4.62% [at 46.1 µM],–
CCCc1cc(C(=O)Nc2cc(C)ccc2O)no1,–,"inconclusive: 39.8 µM [inhibitor, partial curve, poor fit]"
CCOC(=O)c1ccc(NC(=O)c2ccc3c(c2)CCN3S(=O)(=O)c2ccc(Cl)cc2)cc1,–,"inconclusive: 4.47 µM [inhibitor, partial curve, poor fit]"
COc1cc2[nH]c(=O)n(Cc3ccc(C(=O)N4CCN(c5cccc(C)c5C)CC4)cc3)c(=O)c2cc1OC,inactive: -1.97% [at 46.1 µM],–
CCC(C(=O)NCc1ccco1)n1nc(C)c2c(C)n(-c3ccccc3)nc2c1=O (centres undefined),inactive: 12.2% [at 46.1 µM],–
Cc1cc(C)nc(N2N=C(CSc3ccc(Cl)cc3)CC2=O)n1,–,"inconclusive: 2 µM [activator, partial curve, poor fit]"
CC(Oc1ccc(Cl)cc1Cl)C(=O)NNC(=O)c1ccncc1 (centres undefined),inactive: 5.32% [at 46.1 µM],–
Cc1cccc(NS(=O)(=O)c2nnc(NC(=O)C3CCCCC3)s2)c1,–,"inconclusive: 3.16 µM [activator, single point]"
COc1cccc(C2=NN(C(=O)c3ccc(C)o3)C(O)(C(F)(F)F)C2)c1 (centres undefined),–,"inconclusive: 0.794 µM [inhibitor, single point]"
NC(=O)CC1C(=O)N(c2ccccc2)C(=S)N1NC(=O)c1ccccc1 (centres undefined),inactive: -1.12% [at 46.1 µM],–
COC(=O)CC1Nc2ccccc2SC1=O (centres undefined),inactive: 8.79%,–
Cc1ccc2nc(-c3ccc(S(=O)(=O)N4CCCCC4)cc3)cn2c1,inactive: 22.1%,–
COc1cc(C(=O)NC(=S)Nc2ccc3oc(=O)ccc3c2)cc(OC)c1OC,–,"inconclusive: 20.6 µM [inhibitor, single point]"
O=c1c2ccccc2nc(-c2ccco2)n1-c1nccs1,–,"inconclusive: 22.4 µM [inhibitor, single point]"
O=C(CCS(=O)(=O)c1ccccc1)N(CCCN1CCOCC1)c1nc2ccccc2s1,–,"inconclusive: 35.5 µM [inhibitor, single point]"

# Complete entries from above. Order of values: activity change, negative = inhibition	Potency
# O=C1CC(SCCO)C(=O)N1c1ccc(Oc2ccccc2)cc1 (centres undefined) is listed with –	inconclusive: 29.1 µM [inhibitor, partial curve, poor fit]
# O=c1nc2c(-c3ccccc3F)n[nH]n2c2ccccc12 is listed with –	inconclusive: 14.6 µM [activator, single point]
# O=c1c2ccccc2nc(-c2ccco2)n1-c1nccs1 is listed with –	inconclusive: 22.4 µM [inhibitor, single point]
# CCOC(=O)c1nn(-c2ccc3c(c2)OCO3)cc1O is listed with inactive: 16.6%	–

# (further entries)

Structure (SMILES),"activity change, negative = inhibition",Potency
CC(=O)N1CCC(C(=O)OCc2ccc(Cl)cc2)(c2ccccc2)CC1,–,"inconclusive: 35.5 µM [inhibitor, single point]"
COCCn1c(C)cc(C(=O)COC(=O)c2ccc[nH]c2=O)c1C,–,"inconclusive: 7.31 µM [inhibitor, partial curve, poor fit]"
Cc1[nH][nH]c(=O)c1C(c1c(C)[nH][nH]c1=O)c1cn(Cc2ccccc2Cl)c2ccccc12,–,"inconclusive: 6.31 µM [inhibitor, full curve]"
Cc1ccc2c(n1)CC(C)(C)C/C2=N\O,–,"inconclusive: 2.91 µM [inhibitor, partial curve, poor fit]"
CCOC(=O)c1cc(C#N)c(Oc2ccccc2OC)nc1-c1ccccc1,–,"inconclusive: 8.91 µM [inhibitor, partial curve, poor fit]"
CN(C)S(=O)(=O)Oc1cccc(C(=O)Nc2ccc(Cl)cc2)c1,–,active: 14.6 µM
N#Cc1ccccc1NC(=O)CC1CCCCC1,–,"inconclusive: 1.26 µM [activator, single point]"
COc1cc(C2C(=O)N(C3CCC(C)CC3)CC(=O)N2CCc2ccc(Cl)cc2)ccc1OC(C)C (centres undefined),inactive: -7.12% [at 46.1 µM],–
CCOC(=O)Cc1csc(NC(=O)COc2ccc3ccccc3c2)n1,–,"inconclusive: 5.01 µM [inhibitor, partial curve, poor fit]"
Cc1ccccc1C1=NC(C(F)(F)F)(C(F)(F)F)c2c(n(C)c(=O)n(C)c2=O)N1,inactive: -8.09%,–
COc1ccc(CCCc2nnc(SCC(=O)NN)o2)c(C)c1,–,"inconclusive: 3.98 µM [inhibitor, full curve, poor fit]"
Cc1ccc(-c2nnc(NC(=O)CCS(=O)(=O)c3ccccc3)o2)c(C)c1,–,"inconclusive: 2 µM [inhibitor, partial curve, poor fit]"
CCNc1nc(Oc2ccc(=O)[nH]n2)nc(N2CCOCC2)n1,inactive: -0.404%,–
COc1c(Br)cc(Br)cc1/C=N/n1c(C)nnc1C,–,"inconclusive: 29.1 µM [inhibitor, single point]"
Cc1occc1-c1nnc(SCC(=O)N2CC(=O)Nc3ccccc32)n1CC(C)C,inactive: -20.7%,–
FC(F)(F)c1cnc(C(c2ccccc2)c2ncn[nH]2)c(Cl)c1 (centres undefined),inactive: 7.63% [at 46.1 µM],–
Fc1ccc(-c2cnn3c(-c4cccs4)ccnc23)cc1,–,active: 10 µM
CC1CN(C(=O)COC(=O)c2cc(S(N)(=O)=O)c(Cl)cc2Cl)CC(C)O1 (centres undefined),inactive: 0.34% [at 46.1 µM],–
Cc1ccc(S(=O)(=O)c2cn(CC(=O)Nc3ccc4c(c3)OCO4)c3ccc(F)cc3c2=O)cc1,inactive: -7.31% [at 46.1 µM],–
COc1ccc(CNC(=O)CN2CCN(C(c3ccccc3)c3ccccc3)CC2)cc1,–,"inconclusive: 7.08 µM [inhibitor, partial curve, poor fit]"
N#Cc1ccccc1Cn1cc(C(=O)c2ccco2)c2ccccc21,inactive: 22.6%,–
CCN(CC)S(=O)(=O)c1ccc(/C=C/C(=O)O)cc1,–,"inconclusive: 6.31 µM [inhibitor, partial curve, poor fit]"
Cc1ccc(N2CCN(C3=NC(=O)/C(=C\c4cn[nH]c4-c4ccccc4)S3)CC2)cc1,–,"inconclusive: 1 µM [inhibitor, partial curve, poor fit]"
